Assay results: the supplement of paper PMC3334620
Over roughly 33,000 sequences, “E-score (-0.5 to 0.5)” has its median near -0.0059; the highest 2% begin near 0.26. The list shows a part of the results.

biological target: T1, Cin5 (UniProt P40917); experiment: PBM E-score (8-mer binding enrichment) (E-score (-0.5 to 0.5)); higher = stronger / more preferred TF binding; conditions: protein concentration: 100 nM; construct: GST-full length
T1 sequence: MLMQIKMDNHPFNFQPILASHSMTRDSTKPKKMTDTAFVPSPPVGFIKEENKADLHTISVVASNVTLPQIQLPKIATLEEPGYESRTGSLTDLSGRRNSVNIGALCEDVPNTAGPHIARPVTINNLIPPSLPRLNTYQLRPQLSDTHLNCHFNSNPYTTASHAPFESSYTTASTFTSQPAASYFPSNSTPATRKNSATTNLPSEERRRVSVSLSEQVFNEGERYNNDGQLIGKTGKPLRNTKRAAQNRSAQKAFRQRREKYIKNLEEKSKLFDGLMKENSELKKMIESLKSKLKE
Description: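 Universal 'all 10-mer' protein binding microarrays (Agilent AMADID 015681) probed with GST-tagged S. cerevisiae TFs (full-length or DBD) made by in vitro transcription/translation (PURExpress), about 100-200 nM. Bound TF was detected with fluorescent anti-GST. Each ungapped 8-mer (which stands for itself and its reverse complement) is scored by the PBM enrichment score (E-score), a modified Wilcoxon-Mann-Whitney statistic from -0.5 to +0.5, computed with the Universal PBM Analysis Suite. Scale: above 0.35 generally sequence-specific binding.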

| Sequence | PBM E-score |
| --- | --- |
| AGCTTACC | 0.226 |
| CCATCATA | 0.05 |
| GAGGTGAC | 0.0854 |
| GCTGAAAA | 0.0942 |
| AACACCAC | 0.033 |
| AGTAGTCA | 0.0207 |
| CGGATCCA | 0.165 |
| GAAGGCTA | -0.0461 |
| CTATGAAC | -0.0501 |
| CTCTTTTC | 0.023 |
| CTGAGAAA | -0.00015 |
| GACGTGTA | -0.148 |
| AACACGAA | 0.191 |
| AAGATGCG | 0.106 |
| CTCCCGGA | -0.0612 |
| AGGTTTAC | -0.0651 |
| AGAGGACT | -0.247 |
| GGGTATCA | -0.0392 |
| ATCCGATA | 0.0454 |
| AAGTACAA | 0.217 |
| CACGACAA | -0.00342 |
| CTCCCCTC | -0.0793 |
| TCGATCCA | -0.0512 |
| ATGCGCGA | -0.094 |
| ATCACAAG | 0.0853 |

| Sequence | PBM E-score |
| --- | --- |
| ACTGGAGA | -0.0664 |
| ATGCTTGA | 0.133 |
| ATCAGCAA | 0.0322 |
| AAAGACCC | -0.155 |
| TAATTAGA | 0.146 |
| AATGCCGG | -0.012 |
| ACACGTTC | -0.0241 |
| TGACATCA | 0.356 |
| AGCCATTA | 0.119 |
| ACCATCGA | 0.0206 |
| GTCAGCAA | 0.267 |
| AAGAAACC | 0.138 |
| TAAGCGAA | 0.275 |
| AATCTTGC | 0.0822 |
| ACATTTGA | 0.144 |
| ACGGCCGG | -0.108 |
| CATAGGCC | -0.0986 |
| GTTGCAAC | 0.0287 |
| CTACATAA | 0.0697 |
| CTAAAGTC | -0.259 |
| TATAACCA | 0.189 |
| ACTATTAC | 0.224 |
| CCTGGAGC | -0.184 |
| AAGAGCTA | 0.0249 |
| CTTGGCGA | -0.247 |

| Sequence | PBM E-score |
| --- | --- |
| CAAGGATG | -0.00238 |
| AGACCAAC | 0.0138 |
| CCAACCTC | 0.0593 |
| GGCTCAAA | -0.161 |
| ACTCGCCC | -0.144 |
| AAAAATAT | 0.208 |
| GCGATCAC | -0.0212 |
| CGTGAACG | -0.236 |
| CCATTCCC | -0.11 |
| ACGCTATG | -0.00946 |
| CTAGGATA | -0.1 |
| CGTTCACC | -0.0464 |
| AAAACGTA | 0.0895 |
| ATTGATTG | 0.186 |
| GCTTTAAC | 0.0858 |
| ATAAATTG | 0.272 |
| AGTATCTC | 0.0416 |
| AAAACATA | 0.146 |
| GACGGATC | 0.0137 |
| AATACGTG | -0.0461 |
| GACTTTGC | 0.0511 |
| CCCGCGCG | 0.138 |
| GAGAGAAA | -0.00971 |
| GCCAGCTA | -0.0147 |
| GGCCGGAC | -0.26 |

A different layout for part of the listing above:
Sequence,PBM E-score
CCAACCTC,0.0593
GGCTCAAA,-0.161
ACTCGCCC,-0.144
AAAAATAT,0.208

Following part:

| Sequence | PBM E-score |
| --- | --- |
| CGGGTGAA | 0.0438 |
| ATCCAGGG | -0.214 |
| CGTCGCCA | -0.0589 |
| CTGCCTAC | 0.061 |
| AGTCCGGG | -0.17 |
| GCTATTCA | 0.092 |
| GGACCCAA | -0.0926 |
| TAACCGTA | 0.0558 |
| CTTTATGC | -0.0141 |
| GCGTTAAC | 0.00491 |
| ACATCGAG | -0.0343 |
| TTGTAAAA | 0.109 |
| ACAGAAAT | 0.0785 |
| TCGAAGAA | 0.014 |
| CCCAGTAA | 0.0641 |
| ACCTGTAA | 0.04 |
| AGGCTCAT | -0.224 |
| ACCAGAAA | 0.0106 |
| CCCTCCAA | -0.204 |
| AAGTGCAT | 0.072 |
| ACTATCTG | -0.038 |
| AAGTTAGA | 0.108 |
| ATTCGCAG | 0.121 |
| ACAAGGAG | 0.0212 |
| ACAAGATG | 0.116 |

Quoted from the listing:
Value of AAGTTAGA under PBM E-score: 0.108
Value of CGGGTGAA under PBM E-score: 0.0438

(cont.)

| Sequence | PBM E-score |
| --- | --- |
| CGAGATAG | -0.0704 |
| CTTAAAAG | -0.203 |
| TAATCCGA | 0.0733 |
| CCATACAC | 0.092 |
| AGCGCGAG | -0.0755 |
| AAGCCACG | -0.0147 |
| AAATTGGC | 0.0912 |
| AACGGCTG | -0.193 |
| ATCACGTA | 0.269 |
| GCCACACC | -0.0231 |
| ATTTGTAG | 0.136 |
| GCACGTCA | -0.112 |
| CCTACAAC | 0.11 |
| CATGTTAG | -0.044 |
| ATGATTTG | 0.123 |
| AGCCGGCA | 0.0255 |
| AGAGCGAT | -0.158 |
| ATCTCAGG | 0.0461 |
| AGCCAACA | -0.11 |
| ACCAAAGC | -0.0522 |
| AGGGTGGG | 0.0776 |
| ACGCGTGC | 0.0519 |
| CACTTTGA | -0.212 |
| CGAATTTA | 0.0677 |
| GCAATGTA | 0.0867 |

| Sequence | PBM E-score |
| --- | --- |
| ACCCCTGC | -0.13 |
| TAGGCATA | -0.0591 |
| GCATTGGC | -0.238 |
| AAGCGCCT | -0.12 |
| GAGGGCCC | -0.254 |
| TATTATGA | 0.184 |
| GCCTGCCC | -0.241 |
| AACCGCGG | 0.214 |
| CTGAGTTA | -0.0462 |
| ATTGGATC | 0.0862 |
| CGGGAGGC | -0.237 |
| ACTAATCC | 0.125 |
| TGGTACAA | 0.14 |
| CACATCGA | -0.0812 |
| CAAAGTTG | 0.02 |
| AAGAACAT | 0.217 |
| AAGGGGAT | 0.169 |
| ATATTCGC | 0.2 |
| GTCCGAGA | 0.0782 |
| TCCCCGCA | 0.00162 |
| CGGCTAGC | -0.121 |
| GGCCAAAC | -0.112 |
| CATTGGCA | 0.00886 |
| AGTCTTGG | -0.0595 |
| AACTCACT | -0.14 |

| Sequence | PBM E-score |
| --- | --- |
| CAGATAGG | -0.0377 |
| AGCGATAC | -0.0731 |
| TCATGCAA | 0.24 |
| CTGAATAC | 0.108 |
| CAGAAAAG | 0.0975 |
| AAATCTCC | -0.258 |
| AAGTCGAT | 0.0524 |
| AATCCAGC | 0.00756 |
| CTGGAGAA | -0.202 |
| CAATTCGG | 0.108 |
| GATACCCC | -0.0613 |
| ACTCATCT | 0.156 |
| AGCCCCAA | 0.0821 |
| CCTATGTC | -0.0666 |
| CCACACTA | 0.149 |
| GAAATCGC | 0.0867 |
| ACGCGCAG | -0.124 |
| AACTGTTC | 0.191 |
| CCCCCTAG | -0.464 |
| GTGGACTA | 0.0765 |
| GGCAGGCA | -0.12 |
| CCTCAAGC | -0.173 |

Some of the entries above in a different format.
Sequence,PBM E-score
AAGAACAT,0.217
AAGGGGAT,0.169
ATATTCGC,0.2
GTCCGAGA,0.0782
TCCCCGCA,0.00162
